Where a chain is given by its changes, count along the chain named. No constants are given. Whether binding was seen depends on the method and setting. Some results given as binding are weak or reduced against the parent protein; the word gives no strength.
Experiments:
[1] = target: QP1328 (人TSLP的FC融合) (human) (UniProt Q969D9); test: ELISA, hybridoma supernatant on human TSLP
[2] = target: QP313 (食蟹猴TSLP的FC融合) (cynomolgus monkey); test: ELISA, hybridoma supernatant on cynomolgus TSLP
[3] = target: QP1005 (human TSLP-his) (human) (UniProt Q969D9); test: SPR (Biacore S200), antibody captured on Protein A chip, QP1005 in flow
[4] = target: QP1328 (人TSLP的FC融合) (human) (UniProt Q969D9); test: ELISA, QP1328 coated, anti-Fab HRP detection
[5] = target: QP313 (食蟹猴TSLP的FC融合) (cynomolgus monkey); test: ELISA, QP313 coated, anti-Fab HRP detection
[6] = target: QP313 (食蟹猴TSLP的FC融合) (cynomolgus monkey); test: ELISA (legend of Figure 3)
[7] = target: QP1328 (人TSLP的FC融合) (human) (UniProt Q969D9); test: ELISA (legend of Figure 1)
[8] = target: QP1005 (human TSLP-his) (human) (UniProt Q969D9); test: SPR (Biacore 8K), antibody captured on Protein A chip, QP1005 in flow

Sequences of proteins named here, by UniProt entry; tags and fusion partners are left off. Residues count along the entry.
UniProt Q969D9, residues 29-159: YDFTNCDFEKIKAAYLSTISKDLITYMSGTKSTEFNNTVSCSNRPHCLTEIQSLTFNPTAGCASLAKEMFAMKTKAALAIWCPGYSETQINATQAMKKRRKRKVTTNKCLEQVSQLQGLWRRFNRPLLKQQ

B1: mab177A12 (antibody, V domains shown)
VH: QVQLQQPGAELVKPGASVKMSCKASGYTFTSYWMHWVKQRPGQGLEWIGVIDPSDTYTTYNQKFKGKATLTVDTSSSTAYMQLSSLTSEDSAVYYCTRSLDGFFDYWGQGTTLTVSS
VL: DIQMTQSPASLSASVGETVSITCRASENIYSYLAWYQQKQGKSPQLLVYFAKTLAAGVPSRFSGSGSGTQFSLKINSLQPEDFGNYYCQHHYDTPWTFGGGTKLEIK
binding [1]: binds
binding [2]: binds

B2: 人源化的抗TSLP抗体QP420422 (antibody, human IgG1, V domains shown)
VH: QVQLVQSGAEVKKPGASVKVSCKASGYTFTSYWMHWVKQAPGQGLEWIGVIDPSDTYTTYNQKFKGKATLTVDTSTSTAYMELSSLRSEDTAVYYCTRSLDGFFDYWGQGTLVTVSS
VL: DIQMTQSPSSLSASVGDRVTITCRASENIYSYLAWYQQKPGKSPKLLVYFAKTLAAGVPSRFSGSGSGTDFTLTISSLQPEDFATYYCQHHYDTPWTFGQGTKVEIK
binding [3]: binds

B3: 嵌合抗体QP378379 (antibody, human IgG1, kappa, V domains shown)
VH: B1 VH
VL: DIQMTQSPASLSASVGETVSITCRASENIYSYLAWYQQKQGKSPQLLVYFAKTLAAGVPSRFSGSGSGTQFSLKINSLQPEDFGNYYCQHHYDTPWTFGGGTKLEIKR
binding [4]: binds
binding [5]: binds
binding [3]: binds
binding [6]: binds
binding [7]: binds

B4: 抗TSLP抗体QP36110422 (antibody, IgG1, V domains shown)
VH: B2 VH with S54Y, T56A, Y57D, K63R
VL: B2 VL
binding [4]: binds
binding [5]: binds
binding [8]: binds

B5: 抗TSLP抗体QP36160422 (antibody, IgG1, V domains shown)
VH: B2 VH with S54Y, Y57D
VL: B2 VL
binding [4]: binds
binding [5]: binds
binding [8]: binds

B6: 抗TSLP抗体QP04203625 (antibody, IgG1, V domains shown)
VH: B2 VH
VL: B2 VL with K52R, T53R, L54P
binding [4]: binds
binding [5]: binds
binding [8]: binds

Reference: patent CN115433275A
